Measured values published in PubChem BioAssay (EPA / NIEHS).
Where “and” joins values, the source holds several entries; their conditions need not be identical. Equal entries are not always repeated. This list was built around the results that the source calls inconclusive (neither active nor inactive); the mix of calls is not that of the screen. Potencies of inconclusive entries are doubtful fits and often do not repeat. Calls of active or inactive are those of the source. The calls were made as follows: active = hit-call score of the fitted dose curve at least 0.9, where 1 is the maximum; inconclusive = response in the unintended direction; inactive = score below 0.9.

By UniProt entry, the sequences of proteins in these tests, tags left out. Where a name states a change or a piece, a line headed by the entry shows the natural chain unless it says otherwise.
UniProt P10275: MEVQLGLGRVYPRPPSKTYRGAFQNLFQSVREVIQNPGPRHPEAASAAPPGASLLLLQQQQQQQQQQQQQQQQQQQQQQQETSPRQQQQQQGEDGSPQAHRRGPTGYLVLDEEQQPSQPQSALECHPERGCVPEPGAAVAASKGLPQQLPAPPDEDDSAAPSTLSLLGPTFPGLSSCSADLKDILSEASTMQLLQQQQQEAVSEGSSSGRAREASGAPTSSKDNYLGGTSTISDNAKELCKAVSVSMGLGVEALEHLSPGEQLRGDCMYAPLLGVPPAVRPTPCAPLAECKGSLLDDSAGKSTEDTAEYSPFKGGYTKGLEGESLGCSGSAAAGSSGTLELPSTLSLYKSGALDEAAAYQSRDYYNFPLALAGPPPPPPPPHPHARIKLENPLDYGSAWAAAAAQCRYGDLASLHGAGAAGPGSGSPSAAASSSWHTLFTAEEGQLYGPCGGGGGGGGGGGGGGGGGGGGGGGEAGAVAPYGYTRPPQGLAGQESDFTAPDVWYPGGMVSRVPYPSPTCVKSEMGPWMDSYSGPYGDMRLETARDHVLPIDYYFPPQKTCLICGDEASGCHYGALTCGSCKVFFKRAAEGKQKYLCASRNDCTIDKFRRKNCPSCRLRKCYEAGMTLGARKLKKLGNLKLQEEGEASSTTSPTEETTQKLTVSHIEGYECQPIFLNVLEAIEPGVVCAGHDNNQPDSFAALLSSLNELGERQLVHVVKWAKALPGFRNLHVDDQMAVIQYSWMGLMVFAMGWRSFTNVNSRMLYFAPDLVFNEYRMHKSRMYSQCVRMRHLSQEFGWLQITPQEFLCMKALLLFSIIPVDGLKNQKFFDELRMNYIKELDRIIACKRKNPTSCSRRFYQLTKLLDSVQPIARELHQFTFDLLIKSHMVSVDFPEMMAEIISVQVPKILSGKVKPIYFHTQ

test system: not listed separately; assay: ACEA_ER_AUC_viability: ACEA Biosciences xCELLigence Real-Time Cell Analysis on Estrogen Receptor Agonism for Viability (AID 2283782);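 also: hit means loss of impedance signal meaning reduced cell growth or viability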
Procedure, shortened: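 Read-out: real-time electrical impedance (RT-CES) area under curve, loss of signal taken as reduced viability, normalized to DMSO baseline. T-47D cells, charcoal-stripped serum medium, compounds up to 100 uM final, continuous exposure, 80 h.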

| SMILES | outcome | AC50 |
| --- | --- | --- |
| COCC(C)OCC(C)OCC(C)O (stereo not given) | inactive |  |
| Cc1ccc(C)c(OCCCC(C)(C)C(=O)O)c1 |  | inconclusive: 88.8 nM |
| Cc1cccc([N+](=O)[O-])c1C |  | inconclusive: 54.5 nM |
| NC(=NCCCCCCN=C(N)/N=C(\N)Nc1ccc(Cl)cc1)/N=C(\N)Nc1ccc(Cl)cc1 |  | active: 8.38 µM and active: 9.06 µM |
| CCCCCCC(C)(C)C(=O)O | inactive |  |
| C[C@]12CC[C@H]3C(=CCc4cc(O)ccc43)[C@@H]1CCC2=O |  | inconclusive: 2.87 nM |
| C[C@]12CC[C@@H]3c4ccc(O)cc4C[C@@H](CCCCCCCCCS(=O)CCCC(F)(F)C(F)(F)F)[C@H]3[C@@H]1CC[C@@H]2O (stereo not given in full) |  | inconclusive: 9.56 µM and inconclusive: 6.39 µM and inconclusive: 2.5 µM |

Another view of part of the listing above:
SMILES | outcome | AC50
NC(=NCCCCCCN=C(N)/N=C(\N)Nc1ccc(Cl)cc1)/N=C(\N)Nc1ccc(Cl)cc1 |  | active: 8.38 µM and active: 9.06 µM
C[C@]12CC[C@@H]3c4ccc(O)cc4C[C@@H](CCCCCCCCCS(=O)CCCC(F)(F)C(F)(F)F)[C@H]3[C@@H]1CC[C@@H]2O (stereo not given in full) |  | inconclusive: 9.56 µM and inconclusive: 6.39 µM and inconclusive: 2.5 µM

molecular target: AR (gene 367) (UniProt P10275); assay: ACEA_AR_agonist_80hr: ACEA Biosciences xCELLigence Real-Time Cell Analysis on Androgen Receptor Agonism for Proliferation (AID 2283783);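 also: hits increase impedance growth signal above DMSO baseline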
Procedure, shortened: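 Impedance (RT-CES) growth signal at 80 h post-dose; 22Rv1 cells, 8-pt 1:4 series, top 100 uM final, DMSO ≤0.5%; duplicate plates; gain-of-signal fit relative to DMSO baseline.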

| SMILES | AC50 | outcome |
| --- | --- | --- |
| CC(C)=CCCC(C)CCO (stereo not given) | inconclusive: 50 µM |  |
| CC[C@H](c1ccc(O)cc1)[C@@H](CC)c1ccc(O)cc1 |  | inactive |
| O=C(O)c1ccccc1C(c1ccc(O)cc1)c1ccc(O)cc1 | inconclusive: 0.00061 µM |  |
| O=c1c(-c2ccc(O)cc2)coc2cc(O)ccc12 |  | inactive |
| CCOC(=O)COc1cc(-n2ncc(C(F)(F)F)c(C)c2=O)c(F)cc1Cl |  | inactive |
| CC(C)=CCC[C@H](C)CCO | inconclusive: 4.24 µM |  |
| COc1cc(O)c(C(=O)c2ccccc2)cc1S(=O)(=O)O | active: 0.0228 µM |  |
| O=C(O)Cc1ccccc1Nc1c(Cl)cccc1Cl | inconclusive: 0.581 µM |  |
| O=Cc1ccccc1C=O | inconclusive: 0.011 µM |  |
| COc1ccc(C(=O)c2ccccc2)c(O)c1 | inconclusive: 4.54 µM |  |
| CC(=O)CC(C)(C)O | inconclusive: 1.16 µM |  |
| O=C(c1ccc(O)cc1O)c1ccc(O)cc1O | active: 0.187 µM |  |
| CN(C)C(=O)Nc1ccc(Cl)c(Cl)c1 |  | inactive |
| N#C[C@@H]1CC(F)(F)CN1C(=O)CNC1CC2CCC(C1)N2c1ncccn1 (stereo not given in full) |  | inactive |
| CCCOC(=O)c1ccc(C(=O)OCCC)nc1 | inconclusive: 0.00228 µM |  |
| O=c1cc(-c2ccccc2)oc2ccccc12 | inconclusive: 0.0641 µM |  |
| O=C(c1ccccc1)C1CCCCC1 | inconclusive: 50 µM |  |
| Oc1ccc(-c2ccccc2)c(Cl)c1 |  | inactive |
| O=C(Nc1ccc(Cl)cc1)Nc1ccc(Cl)c(Cl)c1 |  | inactive |

| SMILES | AC50 | outcome |
| --- | --- | --- |
| COCCOC[C@H](CC1(C(=O)NC2CCC(C(=O)O)CC2)CCCC1)C(=O)Oc1ccc2c(c1)CCC2 (stereo not given in full) | inconclusive: 30.2 µM |  |
| CC1(C)C(C=C(Cl)Cl)C1C(=O)OCc1cccc(Oc2ccccc2)c1 (stereo not given) |  | inactive |
| CCN=c1cc2oc3cc(NCC)c(C)cc3c(-c3ccccc3C(=O)OCC)c-2cc1C |  | inactive |
| CCCCC(CC)C(=O)OCCOCCOCCOC(=O)C(CC)CCCC (stereo not given) |  | inactive |
| CC(C)CCCCCCc1ccc(OCCOCCO)cc1 |  | inactive |
| OC[C@H]1O[C@@H](O[C@H]2[C@H](O)[C@@H](O)[C@H](O)O[C@@H]2CO)[C@H](O)[C@@H](O)[C@H]1O | inconclusive: 16.6 µM |  |
| Cc1ccc(C)c(C)c1 | inconclusive: 0.03 µM |  |
| CCCCCCCCCc1ccc(OCCO)cc1 | inconclusive: 16.6 µM |  |
| NCCCN1CCOCC1 | inconclusive: 2.28 µM |  |
| CN(C[C@@H](CC[N+]12CCC(C3CCCCC3)(CC1)CC2)c1ccc(Cl)c(Cl)c1)C(=O)c1cc(C(F)(F)F)cc(C(F)(F)F)c1 | inconclusive: 50 µM |  |
| Cc1cc(C(=C2C=CC(=Nc3ccc(S(=O)(=O)O)cc3)C=C2)c2ccc(Nc3ccc(S(=O)(=O)O)cc3)cc2)cc(S(=O)(=O)O)c1N | inconclusive: 11.7 µM |  |
| COCC(C)OCC(C)OCC(C)O (stereo not given) |  | inactive |
| Cc1ccc(C)c(OCCCC(C)(C)C(=O)O)c1 |  | inactive |
| Cc1cccc([N+](=O)[O-])c1C | inconclusive: 4.51 µM |  |
| NC(=NCCCCCCN=C(N)/N=C(\N)Nc1ccc(Cl)cc1)/N=C(\N)Nc1ccc(Cl)cc1 |  | inactive |
| CCCCCCC(C)(C)C(=O)O |  | inactive |
| C[C@]12CC[C@H]3C(=CCc4cc(O)ccc43)[C@@H]1CCC2=O |  | inactive |
| C[C@]12CC[C@@H]3c4ccc(O)cc4C[C@@H](CCCCCCCCCS(=O)CCCC(F)(F)C(F)(F)F)[C@H]3[C@@H]1CC[C@@H]2O (stereo not given in full) |  | inactive |

test system: not listed separately; assay: STM_H9_NormalizedViability: Cytotoxicity Assessment at 120 hours in the Stemina devTOX quickPredict H9 human embryonic stem cell (hESC)-based Assay (AID 2283784)
Procedure, shortened: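 CellTiter-Fluor RFU, background-subtracted, expressed relative to 0.1% DMSO neutral control by plate. Pluripotent H9 cells; treatment with daily re-dosing. Plates carried 1uM methotrexate (positive) and 5 nM methotrexate (negative) references.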

| SMILES | AC50 | outcome |
| --- | --- | --- |
| O=C(O)Cc1ccccc1Nc1c(Cl)cccc1Cl | inconclusive: 50 µM |  |
| O=Cc1ccccc1C=O | inconclusive: 50 µM |  |
| O=C(c1ccc(O)cc1O)c1ccc(O)cc1O | active: 50 µM |  |
| N#C[C@@H]1CC(F)(F)CN1C(=O)CNC1CC2CCC(C1)N2c1ncccn1 (stereo not given in full) |  | inactive |
| CC[C@H](NC(=O)c1cc(F)ccc1NS(=O)(=O)c1cccc2cccnc12)c1ccccc1 | inconclusive: 17 µM |  |
| CCN=c1cc2oc3cc(NCC)c(C)cc3c(-c3ccccc3C(=O)OCC)c-2cc1C | active: 0.116 µM |  |
